Results taken from patent publication US8202834B2, “Fat regulation” (FibroGen, Inc., priority 2002, dated 2012).

Experiment: Plasma triglycerides and cholesterol in rats dosed 14 days
Format: in vivo, Sprague Dawley rats

O=C(O)CNC(=O)c1nc(Cl)c2ccccc2c1O [compound B, [(1-Chloro-4-hydroxy-isoquinoline-3-carbonyl)-amino]-acetic acid]
plasma cholesterol: no corresponding increase | plasma triglycerides (doses of 60, 100 and 200 mg/kg): significant increase
